# Laboratory results from PubChem BioAssay AID2685 (National Center for Advancing Translational Sciences (NCATS), 2010).
# This is one part of the list. The main result of the screen is listed elsewhere. These columns were measured beside it and carry no call. Most of these compounds were active or inconclusive in the main read-out, so they are no random draw. Potencies come from curve fits of mixed quality, noted in brackets.
# Test: qHTS Assay for Lipid Storage Modulators in Drosophila S3 Cells;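 for cell number change: cells counted by Cell Tracker Red CMTPX staining in the red channel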
# Conditions: BODIPY lipid droplet fluorescence, 18-24 h; for cell number change: measured here: cell count max response, cells fed with added oleic acid
# Procedure, shortened: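 Drosophila S3 cells got compounds at several concentrations plus oleic acid (400 uM solution). Laser-scanning cytometry with 488 nm excitation read lipid droplets at 500-530 nm and cells at 575-640 nm. Percent activity was relative to 20 uM Triacsin C.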
# [1] = measured here: lipid fluorescence (Fed channel) AC50, cells fed with added oleic acid
# [2] = measured here: cell number channel AC50, cells fed with added oleic acid
SMILES,cell number change [%],AC50 [1],AC50 [2]
COc1cc(C(=O)Nc2ccc(NC(=O)c3cccc(Cl)c3)nc2)cc(OC)c1OC,25.4,–,–
COc1cc(Cl)ccc1OCc1cc(C(=O)N(C)CC2CCCCO2)no1 (stereo not drawn),8.56,–,–
CC(C(=O)NCc1ccco1)n1ccc2cc(S(=O)(=O)N3CCCCC3)ccc21 (stereo not drawn),–,"6.51 µM [rising, single point]",–
CCOC(=O)CSc1nnc(-c2c[nH]c3ccccc23)n1CC,-74.1,"9.2 µM [falling, partial curve]","18.4 µM [falling, partial curve]"
COc1ccc2c(Cl)c(C(=O)NCCc3ccc(S(N)(=O)=O)cc3)sc2c1,129,–,"23.1 µM [rising, partial curve]"
COc1ccc(CN(C2CCCC2)S(=O)(=O)c2ccc(-n3cnnn3)c(OC)c2)cc1OC,-41.6,"29.1 µM [falling, single point]","20.6 µM [falling, single point]"
C=CCNc1nc2ccccc2nc1NS(=O)(=O)c1ccc(Cl)cc1,-14.9,"29.1 µM [falling, single point]",–
CCN(CC(=O)NCc1cccs1)C(=O)/C=C/c1ccc(OC)cc1OC,–,"2.91 µM [rising, partial curve, poor fit]",–
CCOCCCn1c(SCC(=O)Nc2cccc(S(=O)(=O)NC3=NCCCCC3)c2)nc2ccccc2c1=O,2.45,–,"0.116 µM [falling, full curve, poor fit]"
COc1ccc(CCN2CC(C(=O)OCC(=O)NC(C)c3cccc(Cl)c3)CC2=O)cc1OC (stereo not drawn),5.91,"8.2 µM [rising, partial curve]",–
O=C(Cc1ccc2ccccc2c1)Nc1ccccc1Br,27.2,"5.17 µM [rising, full curve]",–
COc1ccc(-c2noc(-c3ccccc3F)n2)cc1,103,"0.00517 µM [rising, full curve]","0.231 µM [rising, single point]"
O=C(NCCN1CCN(c2ccccc2)CC1)c1cccn2c(=O)c3cc(Cl)ccc3nc12,-15.5,"0.58 µM [rising, single point]",–
Oc1ccccc1-c1cc(-c2ccc(Cl)cc2)n[nH]1,-48.4,"18.4 µM [falling, partial curve]","18.4 µM [falling, partial curve]"
COc1ccccc1C(=O)NNC(=O)C(=O)Nc1ccc(C)cc1,19,"6.51 µM [falling, partial curve]",–
O=C(Nc1ccc(Cl)cc1)[C@@H]1[C@@H]2C(=O)N(c3ccc(Cl)cc3Cl)C(=O)[C@@H]2[C@H]2C=CC=NN21,55.6,–,"23.1 µM [rising, single point]"
CCCOc1ccccc1/C=C1\SC(N2CCCCC2)=NC1=O,-12.4,"23.1 µM [falling, single point]",–
O=C(CN1C(=O)/C(=C/c2ccccc2Cl)SC1=S)NC1CCS(=O)(=O)C1 (stereo not drawn),5.28,–,–
COCCCn1c(N)c(-c2nc3ccccc3n2C)c2nc3ccccc3nc21,12.6,–,–
Cc1ccccc1COc1ccc(/C=C(\C#N)C(N)=O)cc1,-53.8,–,–
Cc1cccc(N2C(=O)SC(SC(=Nc3ccccc3)Nc3ccccc3)C2=O)c1 (stereo not drawn),-33.3,"0.291 µM [falling, full curve, poor fit]","0.58 µM [falling, partial curve, poor fit]"

SMILES,cell number change [%],AC50 [1],AC50 [2]
CCN1CCC2(CC1)N=C(c1ccc(F)cc1)C(=S)N2C(=O)c1ccc(C(C)(C)C)cc1,-67.4,"9.2 µM [falling, partial curve]","10.3 µM [falling, partial curve]"
O=C(NCc1ccccc1)C(c1ccccn1)N(C(=O)c1csnn1)c1ccccc1F (stereo not drawn),9.24,–,–
CCCCNc1ncnc2c1nnn2Cc1ccccc1Cl,20.2,"6.51 µM [rising, single point]",–
CCOc1cc(N2CCOCC2)c(OCC)cc1NC(=O)CN1C(=O)NC(CC(C)C)C1=O (stereo not drawn),6.26,–,–
CCOP(=O)(OCC)c1nc(-c2ccccc2Cl)oc1N1CCOCC1,22.8,–,–
O=C(C1COc2ccccc2O1)N1CCN(c2ccccn2)CC1 (stereo not drawn),4.06,–,–
CN(CC(=O)Nc1ccccc1Cl)CC(=O)Nc1sc2c(c1C(N)=O)CCC2,–,"18.4 µM [rising, partial curve]","0.58 µM [falling, single point]"
CN(NS(=O)(=O)c1ccccc1)c1nc2ccccc2nc1C(F)(F)F,82.7,"20.6 µM [rising, partial curve]","10.3 µM [rising, partial curve]"
Cn1cccc1C(C#N)c1ccccc1C#N (stereo not drawn),49.7,–,"16.4 µM [rising, single point]"
CC(O)CNc1ncnc2cc(-c3ccc(F)cc3)sc12 (stereo not drawn),7.66,"1.3 µM [rising, full curve]",–
N#Cc1ccccc1OCC(=O)OCC(=O)NC1CC1,-4.85,"1.16 µM [rising, full curve]",–
CCC(C)N1C(=O)/C(=C/c2c(NCCCOC(C)C)nc3c(C)cccn3c2=O)SC1=S (stereo not drawn),-92.1,"0.517 µM [falling, full curve]","14.6 µM [falling, partial curve]"
Cc1cc(C(=O)CSc2nnnn2-c2ccc(O)cc2)c(C)n1Cc1ccc2c(c1)OCO2,-14.9,"1.3 µM [rising, full curve, poor fit]",–
Cc1ccccc1-c1ccc(C(=O)Nc2cccc(F)c2)o1,3.59,"10.3 µM [rising, partial curve]",–
N#Cc1ccsc1NC(=O)CN1CCOCC1,-19.1,"0.461 µM [falling, single point]",–
CCc1nc2scc(-c3ccccc3)c2c(=O)n1N,–,"0.411 µM [rising, partial curve, poor fit]","3.26 µM [rising, partial curve]"
O=C(c1ccncc1)c1ccc([N+](=O)[O-])cc1,-15.1,–,"6.51 µM [falling, single point]"
CC12OC1C1(O)CCCC1=CC2=O (stereo not drawn),17.8,"29.1 µM [falling, single point]",–
C/C(CC(=O)Nc1ccccc1)=N\NC(=O)COc1ccc(C)cc1Br,-15.6,–,–
Cc1ccc(S(C)(=O)=O)cc1C(=O)NC(C)C1CC2CCC1C2 (stereo not drawn),-7.69,–,–
COCC(=O)Nc1nnc(C2CCCCC2)s1,6.88,"29.1 µM [falling, single point]",–

# Structural class: the entries above containing a furan ring, fused or not.
SMILES,cell number change [%],AC50 [1],AC50 [2]
CC(C(=O)NCc1ccco1)n1ccc2cc(S(=O)(=O)N3CCCCC3)ccc21 (stereo not drawn),–,"6.51 µM [rising, single point]",–
Cc1ccccc1-c1ccc(C(=O)Nc2cccc(F)c2)o1,3.59,"10.3 µM [rising, partial curve]",–

# Next results follow:

SMILES,cell number change [%],AC50 [1],AC50 [2]
COC(=O)C1(CCSC)NC(c2ccccc2OC)C2C(=O)N(C)C(=O)C21 (stereo not drawn),-0.0698,–,–
Cc1ccc(C(=O)N2CCN(C(=O)C3CCCO3)CC2)cc1 (stereo not drawn),2.15,–,"2.91 µM [falling, single point]"
COc1ccc(C(NC(=O)CN2C(=O)NC3(CCc4ccccc43)C2=O)c2ccccc2)cc1 (stereo not drawn),37.9,"2.59 µM [falling, partial curve]","20.6 µM [rising, single point]"
Cc1ccc(-n2nc3ccc(NC(=S)NC(=O)/C=C/c4ccco4)cc3n2)cc1,4.98,"3.66 µM [rising, single point]",–
Cc1cc2c(c(=O)n1CC1CCCO1)C(c1ccco1)C(C#N)=C(N)O2 (stereo not drawn),1.79,"0.517 µM [falling, full curve]",–
COc1ccc(Nc2nc(Cl)nc(N3CCN(c4ccc(OC)cc4)CC3)n2)cc1,-27.1,"29.1 µM [falling, single point]",–
CCOc1ccc(N(CC(=O)Nc2ccc(OC)cc2)C2=NC3CS(=O)(=O)CC3S2)cc1 (stereo not drawn),8.93,"1.46 µM [rising, partial curve]",–
Cc1nn(C)c(NC(=O)c2ccc(Cl)cc2)c1Cl,-15.3,"0.58 µM [rising, single point]",–
CCOc1ccc2[nH]c(C(=O)N/N=C/c3ccccc3OC)cc2c1,-31,"29.1 µM [falling, single point]","29.1 µM [falling, single point]"
CCOc1cc(NC(=S)Nc2ccccc2OC)c(OCC)cc1NC(=O)c1ccccc1C,-30.2,"18.4 µM [falling, single point]","29.1 µM [falling, partial curve]"
Cc1cc(=O)[nH]c(SCC(=O)NCC2CCCO2)n1 (stereo not drawn),-44.1,"20.6 µM [falling, single point]","29.1 µM [falling, single point]"
COC(=O)c1ccccc1NC(=O)CN(Cc1ccc(Cl)cc1)S(C)(=O)=O,-8.07,"6.51 µM [rising, full curve]",–
CCOc1ccc(OCC)c(S(=O)(=O)n2cc(C)nc2CC)c1,-12.1,"32.6 µM [falling, single point]",–
COc1ccc(S(=O)(=O)N2CCCCCC2)cc1C(=O)N(C)CC(=O)Nc1ccccc1Cl,–,"2.91 µM [rising, single point]",–
CCCCn1c(SCC(=O)NC2CCCC2)nc2ccccc2c1=O,100,"18.4 µM [rising, partial curve]","5.17 µM [rising, full curve]"
CC(=O)Nc1sc2c(c1C#N)CCC2,8.61,–,–
COCCn1c(SCC(=O)Nc2cc(C)on2)nc2c(c1=O)SCC2,4.69,–,–
O=C(CN1CC(=O)Oc2ccccc21)NCc1ccco1,11.6,"6.51 µM [falling, single point]",–
Cc1cc(Cl)ccc1OCC(=O)N1CC(C)CC(C)C1 (stereo not drawn),5.14,"0.00461 µM [rising, full curve, poor fit]",–
